Taken from: PubChem BioAssay AID1508597 (Cure First, 2020)
The whole screen tested about 2,100 reagents; shown is an unselected part. 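Calls flag viability under 80% in either arm, not effects specific to rucaparib; the reference for percent is not stated.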 Entries without a mark were called inactive. Some reagents were tested in more than one well and are listed for each. Not given: the 100% reference.

Assay: 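Survival screen with siRNA in ovarian cancer cells derived from patients, with or without rucaparib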 (primary screen)
System: human ovarian carcinoma lines grown from tumours: OCI-P5x (papillary serous) and OCI-C5x (clear cell)
Reagents: siRNA pool against human genes, 1.25 pmol siRNA per well
Timing: 72 h or 96 h, depending on the cell culture
Treatment: rucaparib 20 µM (about IC30) or vehicle, present until read-out
Measurement: 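Luminescent ATP-based viability assay read 72 or 96 h after transfection, depending on culture, given as normalised percent viability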
Reading the numbers: viability, normalised: higher = more viable cells remaining
Active means: 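a well counts as a hit if its normalised viability is under 80 percent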
Meaning of the calls: active = viability under 80%; inactive = viability 80% or more

no.	gene	rucaparib or vehicle	cell line	technical replicate	viability, normalised (%)
1	PIK3R4 (phosphoinositide-3-kinase regulatory subunit 4)	Rucaparib	OCI-C5x (clear cell)	1	53.8 (active)
2	PIK3R4 (phosphoinositide-3-kinase regulatory subunit 4)	Rucaparib	OCI-C5x (clear cell)	2	53.7 (active)
3	PIK3R4 (phosphoinositide-3-kinase regulatory subunit 4)	Rucaparib	OCI-C5x (clear cell)	3	37.5 (active)
4	PIK3R4 (phosphoinositide-3-kinase regulatory subunit 4)	Rucaparib	OCI-P5x (serous)	1	79 (active)
5	PIK3R4 (phosphoinositide-3-kinase regulatory subunit 4)	Rucaparib	OCI-P5x (serous)	2	94.1
6	PIK3R4 (phosphoinositide-3-kinase regulatory subunit 4)	Rucaparib	OCI-P5x (serous)	3	68.9 (active)
7	PIK3R4 (phosphoinositide-3-kinase regulatory subunit 4)	Vehicle	OCI-C5x (clear cell)	1	59.8 (active)
8	PIK3R4 (phosphoinositide-3-kinase regulatory subunit 4)	Vehicle	OCI-C5x (clear cell)	2	43.8 (active)
9	PIK3R4 (phosphoinositide-3-kinase regulatory subunit 4)	Vehicle	OCI-C5x (clear cell)	3	39.5 (active)
10	PIK3R4 (phosphoinositide-3-kinase regulatory subunit 4)	Vehicle	OCI-P5x (serous)	1	79.2 (active)
11	PIK3R4 (phosphoinositide-3-kinase regulatory subunit 4)	Vehicle	OCI-P5x (serous)	2	54.5 (active)
12	PIK3R4 (phosphoinositide-3-kinase regulatory subunit 4)	Vehicle	OCI-P5x (serous)	3	52.5 (active)
13	L3MBTL2 (L3MBTL histone methyl-lysine binding protein 2)	Rucaparib	OCI-C5x (clear cell)	1	33.3 (active)
14	L3MBTL2 (L3MBTL histone methyl-lysine binding protein 2)	Rucaparib	OCI-C5x (clear cell)	2	26.9 (active)
15	L3MBTL2 (L3MBTL histone methyl-lysine binding protein 2)	Rucaparib	OCI-C5x (clear cell)	3	41.9 (active)
16	L3MBTL2 (L3MBTL histone methyl-lysine binding protein 2)	Rucaparib	OCI-P5x (serous)	1	62.3 (active)
17	L3MBTL2 (L3MBTL histone methyl-lysine binding protein 2)	Rucaparib	OCI-P5x (serous)	2	69.1 (active)
18	L3MBTL2 (L3MBTL histone methyl-lysine binding protein 2)	Rucaparib	OCI-P5x (serous)	3	63.3 (active)
19	L3MBTL2 (L3MBTL histone methyl-lysine binding protein 2)	Vehicle	OCI-C5x (clear cell)	1	34.4 (active)
20	L3MBTL2 (L3MBTL histone methyl-lysine binding protein 2)	Vehicle	OCI-C5x (clear cell)	2	34.3 (active)
21	L3MBTL2 (L3MBTL histone methyl-lysine binding protein 2)	Vehicle	OCI-C5x (clear cell)	3	44.8 (active)
22	L3MBTL2 (L3MBTL histone methyl-lysine binding protein 2)	Vehicle	OCI-P5x (serous)	1	64.2 (active)
23	L3MBTL2 (L3MBTL histone methyl-lysine binding protein 2)	Vehicle	OCI-P5x (serous)	2	68 (active)
24	L3MBTL2 (L3MBTL histone methyl-lysine binding protein 2)	Vehicle	OCI-P5x (serous)	3	70 (active)
25	SUPV3L1 (Suv3 like RNA helicase)	Rucaparib	OCI-C5x (clear cell)	1	54 (active)
26	SUPV3L1 (Suv3 like RNA helicase)	Rucaparib	OCI-C5x (clear cell)	1	48.5 (active)
27	SUPV3L1 (Suv3 like RNA helicase)	Rucaparib	OCI-C5x (clear cell)	2	42.4 (active)
28	SUPV3L1 (Suv3 like RNA helicase)	Rucaparib	OCI-C5x (clear cell)	2	36.1 (active)
29	SUPV3L1 (Suv3 like RNA helicase)	Rucaparib	OCI-C5x (clear cell)	3	58.9 (active)
30	SUPV3L1 (Suv3 like RNA helicase)	Rucaparib	OCI-C5x (clear cell)	3	42.4 (active)
31	SUPV3L1 (Suv3 like RNA helicase)	Rucaparib	OCI-P5x (serous)	1	47.4 (active)
32	SUPV3L1 (Suv3 like RNA helicase)	Rucaparib	OCI-P5x (serous)	1	40.9 (active)
33	SUPV3L1 (Suv3 like RNA helicase)	Rucaparib	OCI-P5x (serous)	2	61 (active)
34	SUPV3L1 (Suv3 like RNA helicase)	Rucaparib	OCI-P5x (serous)	2	38.9 (active)
35	SUPV3L1 (Suv3 like RNA helicase)	Rucaparib	OCI-P5x (serous)	3	54.7 (active)
36	SUPV3L1 (Suv3 like RNA helicase)	Rucaparib	OCI-P5x (serous)	3	49.3 (active)
37	SUPV3L1 (Suv3 like RNA helicase)	Vehicle	OCI-C5x (clear cell)	1	54.6 (active)
38	SUPV3L1 (Suv3 like RNA helicase)	Vehicle	OCI-C5x (clear cell)	1	32.5 (active)
39	SUPV3L1 (Suv3 like RNA helicase)	Vehicle	OCI-C5x (clear cell)	2	36.7 (active)
40	SUPV3L1 (Suv3 like RNA helicase)	Vehicle	OCI-C5x (clear cell)	2	37.7 (active)
41	SUPV3L1 (Suv3 like RNA helicase)	Vehicle	OCI-C5x (clear cell)	3	33.2 (active)
42	SUPV3L1 (Suv3 like RNA helicase)	Vehicle	OCI-C5x (clear cell)	3	49.3 (active)
43	SUPV3L1 (Suv3 like RNA helicase)	Vehicle	OCI-P5x (serous)	1	41.1 (active)
44	SUPV3L1 (Suv3 like RNA helicase)	Vehicle	OCI-P5x (serous)	1	65.7 (active)
45	SUPV3L1 (Suv3 like RNA helicase)	Vehicle	OCI-P5x (serous)	2	75.9 (active)
46	SUPV3L1 (Suv3 like RNA helicase)	Vehicle	OCI-P5x (serous)	2	30.2 (active)
47	SUPV3L1 (Suv3 like RNA helicase)	Vehicle	OCI-P5x (serous)	3	50.1 (active)
48	SUPV3L1 (Suv3 like RNA helicase)	Vehicle	OCI-P5x (serous)	3	70 (active)
49	CDC7 (cell division cycle 7)	Rucaparib	OCI-C5x (clear cell)	1	58.9 (active)
50	CDC7 (cell division cycle 7)	Rucaparib	OCI-C5x (clear cell)	2	47.9 (active)
51	CDC7 (cell division cycle 7)	Rucaparib	OCI-C5x (clear cell)	3	57.8 (active)
52	CDC7 (cell division cycle 7)	Rucaparib	OCI-P5x (serous)	1	76.2 (active)
53	CDC7 (cell division cycle 7)	Rucaparib	OCI-P5x (serous)	2	82.1
54	CDC7 (cell division cycle 7)	Rucaparib	OCI-P5x (serous)	3	91.8
55	CDC7 (cell division cycle 7)	Vehicle	OCI-C5x (clear cell)	1	74.5 (active)
56	CDC7 (cell division cycle 7)	Vehicle	OCI-C5x (clear cell)	2	63.5 (active)
57	CDC7 (cell division cycle 7)	Vehicle	OCI-C5x (clear cell)	3	58.7 (active)
58	CDC7 (cell division cycle 7)	Vehicle	OCI-P5x (serous)	1	102
59	CDC7 (cell division cycle 7)	Vehicle	OCI-P5x (serous)	2	89.8
60	CDC7 (cell division cycle 7)	Vehicle	OCI-P5x (serous)	3	108

No new results follow: 10 of the entries above.
no.	gene	rucaparib or vehicle	cell line	technical replicate	viability, normalised (%)
31	SUPV3L1 (Suv3 like RNA helicase)	Rucaparib	OCI-P5x (serous)	1	47.4 (active)
32	SUPV3L1 (Suv3 like RNA helicase)	Rucaparib	OCI-P5x (serous)	1	40.9 (active)
33	SUPV3L1 (Suv3 like RNA helicase)	Rucaparib	OCI-P5x (serous)	2	61 (active)
34	SUPV3L1 (Suv3 like RNA helicase)	Rucaparib	OCI-P5x (serous)	2	38.9 (active)
35	SUPV3L1 (Suv3 like RNA helicase)	Rucaparib	OCI-P5x (serous)	3	54.7 (active)
36	SUPV3L1 (Suv3 like RNA helicase)	Rucaparib	OCI-P5x (serous)	3	49.3 (active)
37	SUPV3L1 (Suv3 like RNA helicase)	Vehicle	OCI-C5x (clear cell)	1	54.6 (active)
38	SUPV3L1 (Suv3 like RNA helicase)	Vehicle	OCI-C5x (clear cell)	1	32.5 (active)
39	SUPV3L1 (Suv3 like RNA helicase)	Vehicle	OCI-C5x (clear cell)	2	36.7 (active)
40	SUPV3L1 (Suv3 like RNA helicase)	Vehicle	OCI-C5x (clear cell)	2	37.7 (active)
